Source: PMC9004249

Assays:
Assay in all cases: EMSA
Settings in all cases: EMSA: 30 min at room temperature, 15% glycerol before loading, 5% native gel in TAE (40 mM Tris, 20 mM acetic acid, 1 mM EDTA) at 4 C, 80 V, EtBr stain; recombinant protein; residues 1-135
[1] = molecular target: T1, CueR_M101R1 (M101C, MTSSL spin-labeled) M101C,C129A,C130A (Escherichia coli) (UniProt P0A9G4)
T1 sequence (looked up): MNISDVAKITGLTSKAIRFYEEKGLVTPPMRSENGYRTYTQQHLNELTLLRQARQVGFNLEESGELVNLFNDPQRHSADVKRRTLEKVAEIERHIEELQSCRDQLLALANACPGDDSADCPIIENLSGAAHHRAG

[2] = molecular target: T2, CueR_G57R1 (G57C, MTSSL spin-labeled) G57C,C129A,C130A (Escherichia coli) (UniProt P0A9G4)
T2 sequence (looked up): T1 sequence (looked up) with G57C, C101M

[3] = molecular target: T3, CueR_A16R1 (A16C, MTSSL spin-labeled) A16C,C129A,C130A (Escherichia coli) (UniProt P0A9G4)
T3 sequence (looked up): T1 sequence (looked up) with A16C, C101M

Measured: binding result

TTGACCTTCCCCTTGCTGGAAGGTTTA (double strand) [copA promoter 27 bp]
binds: all assays above

Substitutions are numbered along the chain they refer to. Construct, isoform or probe ends are uncertain for at least one entry. At least one verdict rests on a figure or table, not on a statement of the authors. Where a protein sequence is shown, tags need not be part of it.
